Where two headings read alike, the source gives them in different places. Some of these results come from one statement about several compounds together.
Biological target: B-Raf (V599E or Wild Type) (Homo sapiens, UniProt P15056)
Test: B-Raf Flash Plate assay
Assay type: biochemical
Conditions: Peptide 118, 0.5 μM ATP, 60 minutes
[1] = read-out: IC50, inhibition of the enzyme in B-Raf Flash Plate assay
[2] = read-out: IC50 in B-Raf Flash Plate assay

Amino acid sequences for entries named in this document (tags omitted).
UniProt P15056, whole entry, stated change not applied: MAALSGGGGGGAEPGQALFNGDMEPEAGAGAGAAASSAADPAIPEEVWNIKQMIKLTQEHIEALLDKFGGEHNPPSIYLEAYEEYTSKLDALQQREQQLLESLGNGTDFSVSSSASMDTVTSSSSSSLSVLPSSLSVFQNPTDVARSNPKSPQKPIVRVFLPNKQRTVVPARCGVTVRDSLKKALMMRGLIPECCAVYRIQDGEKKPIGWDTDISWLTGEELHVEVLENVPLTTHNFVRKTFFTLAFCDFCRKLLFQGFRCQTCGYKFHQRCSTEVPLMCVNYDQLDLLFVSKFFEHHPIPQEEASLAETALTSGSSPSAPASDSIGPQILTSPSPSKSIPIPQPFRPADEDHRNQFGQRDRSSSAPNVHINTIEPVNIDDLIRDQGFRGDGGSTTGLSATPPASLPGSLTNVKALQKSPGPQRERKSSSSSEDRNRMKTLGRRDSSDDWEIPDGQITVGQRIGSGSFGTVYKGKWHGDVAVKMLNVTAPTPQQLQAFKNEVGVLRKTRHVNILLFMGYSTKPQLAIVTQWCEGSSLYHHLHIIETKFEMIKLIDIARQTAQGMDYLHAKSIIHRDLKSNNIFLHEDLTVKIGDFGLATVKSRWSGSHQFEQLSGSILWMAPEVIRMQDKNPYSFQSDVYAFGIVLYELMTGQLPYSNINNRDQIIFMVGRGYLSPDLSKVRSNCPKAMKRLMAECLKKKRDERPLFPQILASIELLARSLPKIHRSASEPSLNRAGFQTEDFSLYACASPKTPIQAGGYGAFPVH

| SMILES | IC50 [1] [nM] | IC50 [2] [nM] |
| --- | --- | --- |
| CC(C)(C)c1cccc(NC(=O)c2ccc3ccc(Oc4ccnc(NC(=O)C5CC5)c4)cc3c2)c1 [Compound I-131, N-(3-tert-butylphenyl)-7-({2-[(cyclopropylcarbonyl)amino]pyridin-4-yl}oxy)-2-naphthamide] | ≤ 1000 | < 50 |
| CC(C)NC(=O)c1cc(Oc2ccc3c(c2)CC(C(=O)Nc2cc(CN)cc(C(F)(F)F)c2)CC3)ccn1 (centres unmarked) [Compound I-229, 4-{[7-({[3-(aminomethyl)-5-(trifluoromethyl)phenyl]amino}carbonyl)-5,6,7,8-tetrahydronaphthalen-2-yl]oxy}-N-isopropylpyridine-2-carboxamide] | ≤ 1000 | – |
| CC(=O)Nc1cc(Oc2ccc3c(c2)CC(NC(=O)c2ccc(Cl)c(C(F)(F)F)c2)CC3)ccn1 (centres unmarked) [Compound I-428, N-(7-{[2-(acetylamino)pyridin-4-yl]oxy}-1,2,3,4-tetrahydronaphthalen-2-yl)-4-chloro-3-(trifluoromethyl)benzamide] | ≤ 1000 | < 50 |
| CC(=O)Nc1cc(Oc2ccc3c(c2)CC(C(=O)Nc2cc(CN4CCCC4)cc(C(F)(F)F)c2)CC3)ccn1 (centres unmarked) [Compound I-287, 7-{[2-(acetylamino)pyridin-4-yl]oxy}-N-[3-(pyrrolidin-1-ylmethyl)-5-(trifluoromethyl)phenyl]-1,2,3,4-tetrahydronaphthalene-2-carboxamide] | ≤ 1000 | < 50 |
| CC(=O)Nc1cc(Oc2ccc3c(c2)CC(C(=O)Nc2cc(CN4CCCCC4)cc(C(F)(F)F)c2)CC3)ccn1 (centres unmarked) [Compound I-219, 7-{[2-(acetylamino)pyridin-4-yl]oxy}-N-[3-(piperidin-1-ylmethyl)-5-(trifluoromethyl)phenyl]-1,2,3,4-tetrahydronaphthalene-2-carboxamide] | ≤ 1000 | < 50 |
| CC(=O)Nc1cc(Oc2ccc3c(c2)CC(C(=O)Nc2cc(C(C)(C)C)no2)CC3)ccn1 (centres unmarked) [Compound I-146, 7-{[2-(acetylamino)pyridin-4-yl]oxy}-N-(3-tert-butylisoxazol-5-yl)-1,2,3,4-tetrahydronaphthalene-2-carboxamide] | ≤ 1000 | < 50 |
| CC(=O)Nc1cc(Oc2ccc3c(c2)CC(C(=O)Nc2ccc(C#N)c(C(F)(F)F)c2)CC3)ccn1 (centres unmarked) [Compound I-242, 7-{[2-(acetylamino)pyridin-4-yl]oxy}-N-[4-cyano-3-(trifluoromethyl)phenyl]-1,2,3,4-tetrahydronaphthalene-2-carboxamide] | ≤ 1000 | < 50 |
| CC(C)C(=O)Nc1cc(Oc2ccc3c(c2)CC(C(=O)Nc2cc(OCCN4CCCC4)cc(C(F)(F)F)c2)CC3)ccn1 (centres unmarked) [Compound I-393, 7-{[2-(isobutyrylamino)pyridin-4-yl]oxy}-N-[3-(2-pyrrolidin-1-ylethoxy)-5-(trifluoromethyl)phenyl]-1,2,3,4-tetrahydronaphthalene-2-carboxamide] | ≤ 1000 | < 50 |
| CNCc1cc(NC(=O)C2=Cc3cc(Oc4ccnc(NC(=O)C5CC5)c4)ccc3OC2)cc(C(F)(F)F)c1 [Compound I-447, 6-({2-[(cyclopropylcarbonyl)amino]pyridin-4-yl}oxy)-N-[3-[(methylamino)methyl]-5-(trifluoromethyl)phenyl]-2H-chromene-3-carboxamide] | ≤ 1000 | < 50 |
| CC(=O)Nc1cc(Oc2ccc3c(c2)CC(C(=O)Nc2cc(CO)cc(C(F)(F)F)c2)CC3)ccn1 (centres unmarked) [Compound I-286, 7-{[2-(acetylamino)pyridin-4-yl]oxy}-N-[3-(hydroxymethyl)-5-(trifluoromethyl)phenyl]-1,2,3,4-tetrahydronaphthalene-2-carboxamide] | ≤ 1000 | < 50 |
| CC(=O)Nc1cc(Oc2ccc3c(c2)CC(C(=O)Nc2ccc(Cl)c(C(F)(F)F)c2)CC3)ccn1 (centres unmarked) [Compound I-86, 7-{[2-(acetylamino)pyridin-4-yl]oxy}-N-[4-chloro-3-(trifluoromethyl)phenyl]-1,2,3,4-tetrahydronaphthalene-2-carboxamide] | ≤ 1000 | – |
| COc1ccc(CN(C)c2cc(Oc3ccc4c(c3)CC(C(=O)Nc3cccc(C(C)(C)C)c3)CC4)ccn2)cc1 (centres unmarked) [Compound I-179, N-(3-tert-butylphenyl)-7-({2-[(4-methoxybenzyl)(methyl)amino]pyridin-4-yl}-oxy)-1,2,3,4-tetrahydronaphthalene-2-carboxamide] | ≤ 1000 | – |
| CC(=O)Nc1cc(Oc2ccc3c(c2)CC(C(=O)Nc2ccc(F)c(C(C)(C)C)c2)CC3)ccn1 (centres unmarked) [Compound I-198, 7-{[2-(acetylamino)pyridin-4-yl]oxy}-N-(3-tert-butyl-4-fluorophenyl)-1,2,3,4-tetrahydronaphthalene-2-carboxamide] | ≤ 1000 | < 50 |

Further lines, results first:

| IC50 [1] [nM] | IC50 [2] [nM] | SMILES |
| --- | --- | --- |
| ≤ 1000 | < 50 | CC(C)(C)c1cccc(NC(=O)C2CCc3ccc(Oc4ccnc(CNC(=O)CN5CCOCC5)c4)cc3C2)c1 (centres unmarked) [Compound I-309, N-(3-tert-butylphenyl)-7-[(2-{[(morpholin-4-ylacetyl)amino]methyl}pyridin-4-yl)oxy]-1,2,3,4-tetrahydronaphthalene-2-carboxamide] |
| ≤ 1000 | < 50 | CNC(=O)c1cc(Oc2ccc3ccc(C(=O)Nc4cc(C(C)(C)C)no4)cc3c2)ccn1 [Compound I-43, 4-[(7-{[(3-tert-butylisoxazol-5-yl)amino]carbonyl}-2-naphthyl)oxy]-N-methylpyridine-2-carboxamide] |
| ≤ 1000 | < 50 | O=C(Nc1ccc(Cl)c(C(F)(F)F)c1)c1ccc2ccc(Oc3ccnc(C4=NCCN4)c3)cc2c1 [Compound I-46, N-[4-chloro-3-(trifluoromethyl)phenyl]-7-{[2-(4,5-dihydro-1H-imidazol-2-yl)pyridin-4-yl]oxy}-2-naphthamide] |
| ≤ 1000 | < 50 | CC(C)(C)c1cccc(NC(=O)C2CCc3ccc(Oc4ccnc(C(=N)N5CCCC5)c4)cc3C2)c1 (centres unmarked) [Compound I-194, N-(3-tert-butylphenyl)-7-({2-[imino(pyrrolidin-1-yl)methyl]pyridin-4-yl}oxy)-1,2,3,4-tetraydronaphthalene-2-carboxamide] |
| ≤ 1000 | < 50 | CC(C)C(=O)NCc1cc(Oc2ccc3c(c2)CC(C(=O)Nc2cccc(C(C)(C)C)c2)CC3)ccn1 (centres unmarked) [Compound I-384, N-(3-tert-butylphenyl)-7-({2-[(isobutyrylamino)methyl]pyridin-4-yl}oxy)-1,2,3,4-tetrahydronaphthalene-2-carboxamide] |
| ≤ 1000 | < 50 | CNC(=O)c1cc(Oc2ccc3c(c2)C[C@H](C(=O)Nc2cc(CN)cc(C(F)(F)F)c2)CC3)ccn1 [Compound I-244, 4-{[(7R)-7-({[3-(aminomethyl)-5-(trifluoromethyl)phenyl]amino}carbonyl)-5,6,7,8-tetrahydronaphthalen-2-yl]oxy}-N-methylpyridine-2-carboxamide] |
| ≤ 1000 | < 50 | CC(C)(C)c1cccc(NC(=O)C2CCc3ccc(Oc4ccnc(CN)c4)cc3C2)c1 (centres unmarked) [Compound I-331, 7-{[2-(aminomethyl)pyridin-4-yl]oxy}-N-(3-tert-butylphenyl)-1,2,3,4-tetrahydronaphthalene-2-carboxamide] |
| ≤ 1000 | < 50 | NCc1cc(NC(=O)C2CCc3ccc(Oc4ccnc5[nH]c(=O)ccc45)cc3C2)cc(C(F)(F)F)c1 (centres unmarked) [Compound I-187, N-[3-(aminomethyl)-5-(trifluoromethyl)phenyl]-7-[(7-oxo-7,8-dihydro-1,8-naphthyridin-4-yl)oxy]-1,2,3,4-tetrahydronaphthalene-2-carboxamide] |
| ≤ 1000 | < 50 | CC(C)(C)c1cccc(NC(=O)C2CCc3ccc(Oc4ccnc(-c5nc(CO)c[nH]5)c4)cc3C2)c1 (centres unmarked) [Compound I-3, N-(3-tert-Butylphenyl)-7-({2-[4-(hydroxymethyl)-1H-imidazol-2-yl]pyridin-4-yl}oxy)-1,2,3,4-tetrahydronaphthalene-2-carboxamide] |
| ≤ 1000 | – | NCc1ccc(NC(=O)c2ccc3ccc(Oc4ccnc(C5=NCCN5)c4)cc3c2)cc1C(F)(F)F [Compound I-39, N-[4-(aminomethyl)-3-(trifluoromethyl)phenyl]-7-{[2-(4,5-dihydro-1H-imidazol-2-yl)pyridin-4-yl]oxy}-2-naphthamide] |
| ≤ 1000 | – | CN(C)c1cc(Oc2ccc3c(c2)CC(C(=O)Nc2cccc(C(C)(C)C)c2)CC3)ccn1 (centres unmarked) [Compound I-366, N-(3-tert-butylphenyl)-7-{[2-(dimethylamino)pyridin-4-yl]oxy}-1,2,3,4-tetrahydronaphthalene-2-carboxamide] |
| ≤ 1000 | < 50 | CC(=O)Nc1cc(Oc2ccc3c(c2)CC(C(=O)Nc2cc(CN4CCNCC4)cc(C(F)(F)F)c2)CC3)ccn1 (centres unmarked) [Compound I-410, 7-{[2-(acetylamino)pyridin-4-yl]oxy}-N-[3-(piperazin-1-ylmethyl)-5-(trifluoromethyl)phenyl]-1,2,3,4-tetrahydronaphthalene-2-carboxamide] |
| ≤ 1000 | – | NCc1cc(NC(=O)C2CCc3ccc(Oc4ccnc(C(=O)N5CCCC5)c4)cc3C2)cc(C(F)(F)F)c1 (centres unmarked) [Compound I-362, N-[3-(aminomethyl)-5-(trifluoromethyl)phenyl]-7-{[2-(pyrrolidin-1-ylcarbonyl)pyridin-4-yl]oxy}-1,2,3,4-tetrahydronaphthalene-2-carboxamide] |
| ≤ 1000 | < 50 | CNC(=O)c1cc(Oc2ccc3c(c2)CC(C(=O)Nc2cc(CNC(=O)NC(C)C)cc(C(F)(F)F)c2)CC3)ccn1 (centres unmarked) [Compound I-314, 4-{[7-({[3-({[(isopropylamino)carbonyl]amino}methyl)-5-(trifluoromethyl)phenyl]amino}carbonyl)-5,6,7,8-tetrahydronaphthalen-2-yl]oxy}-N-methylpyridine-2-carboxamide] |
| ≤ 1000 | < 50 | CC(C)(C)c1cccc(NC(=O)c2ccc3ccc(Oc4ccnc(C(=N)NC5CCCC5)c4)cc3c2)c1 [Compound I-260, N-(3-tert-butylphenyl)-7-({2-[(cyclopentylamino)(imino)methyl]pyridin-4-yl}oxy)-2-naphthamide] |
